Experimental data: PubChem BioAssay AID743121 (NCATS, 2013)
This is one part, drawn at random, of about 26,000 reagents tested. Of all reagents, 167 (0.63%) were called active. 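Calls are per gene from RSA p-values that are not deposited; an individual active-marked siRNA can sensitise only weakly.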 Unmarked entries are inactive. The numbers tell different reagents against one gene apart. Not all columns of the deposit are shown.

- Assay: 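Genes whose silencing strengthens cell killing by camptothecin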 (primary screen)
- System: MDA-MB-231 cells, a human breast cancer line
- Reagent: single siRNA against human genes, 20 nM siRNA (0.8 pmol per well)
- Duration: 120 h (drug added 48 h after transfection, read 72 h later)
- Treatment: camptothecin 20 nM (about EC30) for 72 h; vehicle 0.1% DMSO in parallel plates
- Measured: 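CellTiter-Glo ATP signal, scaled to control siRNA as percent viability; sensitisation given as log2 of untreated divided by camptothecin-treated viability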
- Reading the numbers: log2 vehicle/camptothecin viability: higher = stronger sensitisation to camptothecin
- Active means: 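Active genes have an RSA gene-level p-value below 0.001, computed from the ratios of their separate siRNAs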

Against MAPK3 (GeneID 5595) #1, the values are log2 vehicle/camptothecin viability -0.131. For MAPK3 (GeneID 5595) #2, the values are log2 vehicle/camptothecin viability -0.0343. After knock-down of MAPK3 (GeneID 5595) #3, the screen gave log2 vehicle/camptothecin viability -0.221. Against MAPK3 (GeneID 5595) #4, the values are log2 vehicle/camptothecin viability -0.275. After knock-down of CLU (GeneID 1191) #1, the record shows log2 vehicle/camptothecin viability -0.794. With knock-down of CLU (GeneID 1191) #2, the record shows log2 vehicle/camptothecin viability -0.0268.

Depletion of CLU (GeneID 1191) #3 gave: log2 vehicle/camptothecin viability -0.234. For TNPO3 (GeneID 23534) #1, the entry reads log2 vehicle/camptothecin viability -0.349. For TNPO3 (GeneID 23534) #2 the deposit lists log2 vehicle/camptothecin viability -0.329. TNPO3 (GeneID 23534) #3 showed log2 vehicle/camptothecin viability -0.661. After knock-down of TNPO3 (GeneID 23534) #4 the results were log2 vehicle/camptothecin viability -0.175. Silencing of PRSS23 (GeneID 11098) #1 resulted in: log2 vehicle/camptothecin viability -0.198.

Depletion of PRSS23 (GeneID 11098) #2 came out at: log2 vehicle/camptothecin viability -0.508. PRSS23 (GeneID 11098) #3 gave log2 vehicle/camptothecin viability -0.359. With knock-down of PRSS23 (GeneID 11098) #4 the results were log2 vehicle/camptothecin viability 0.0507. After knock-down of FBXO9 (GeneID 26268) #1, the record shows log2 vehicle/camptothecin viability 0.0678. FBXO9 (GeneID 26268) #2 gave log2 vehicle/camptothecin viability -0.208. After knock-down of FBXO9 (GeneID 26268) #3, the screen gave log2 vehicle/camptothecin viability -0.113.

After knock-down of FBXO9 (GeneID 26268) #4 the results were log2 vehicle/camptothecin viability -0.39. For CLCA2 (GeneID 9635) #1 the deposit lists log2 vehicle/camptothecin viability 0.388. For CLCA2 (GeneID 9635) #2, the entry reads log2 vehicle/camptothecin viability 0.349. For CLCA2 (GeneID 9635) #3 the deposit lists log2 vehicle/camptothecin viability 0.132. After knock-down of CLCA2 (GeneID 9635) #4, the screen gave log2 vehicle/camptothecin viability -0.131. Against UNC13A (GeneID 23025) #1 the deposit lists log2 vehicle/camptothecin viability 0.0739.

With knock-down of UNC13A (GeneID 23025) #2, the screen gave log2 vehicle/camptothecin viability -0.0924. UNC13A (GeneID 23025) #3 gave log2 vehicle/camptothecin viability -0.271. With knock-down of UNC13A (GeneID 23025) #4, the record shows log2 vehicle/camptothecin viability -0.494. Depletion of CTNS (GeneID 1497) #1 resulted in: log2 vehicle/camptothecin viability -0.474. Against CTNS (GeneID 1497) #2, the entry reads log2 vehicle/camptothecin viability -0.325. With knock-down of CTNS (GeneID 1497) #3 the results were log2 vehicle/camptothecin viability -0.349.

After knock-down of P2RY13 (GeneID 53829) #1 the results were log2 vehicle/camptothecin viability -0.277. For P2RY13 (GeneID 53829) #2, the entry reads log2 vehicle/camptothecin viability -0.0866. After knock-down of P2RY13 (GeneID 53829) #3, the screen gave log2 vehicle/camptothecin viability 0.0831. With knock-down of P2RY13 (GeneID 53829) #4 the results were log2 vehicle/camptothecin viability -0.268. Silencing of FBXO34 (GeneID 55030) #1 gave: log2 vehicle/camptothecin viability -0.138. For FBXO34 (GeneID 55030) #2, the values are log2 vehicle/camptothecin viability 1.01.

Knock-down of FBXO34 (GeneID 55030) #3 came out at: log2 vehicle/camptothecin viability 0.0124. For FBXO34 (GeneID 55030) #4, the entry reads log2 vehicle/camptothecin viability -0.282.

2 neighbouring records already listed, for reference:
UNC13A (GeneID 23025) #4 | log2 vehicle/camptothecin viability = -0.494
CTNS (GeneID 1497) #1 | log2 vehicle/camptothecin viability = -0.474
